Values of other authors, collected in patent publication US20200047384A1, “DEVICE FOR THE CONTINUOUS PRODUCTION OF SOLID DOSAGE FORMS, AND USE OF SAID DEVICE FOR MEDICINAL DRUGS AND/OR USE THEREOF FOR FOOD SUPPLEMENTS” (Université de Liège, priority 2016, published 2020).

Conditions: in water; general statement, no test described

water solubility: below 1 microgram per milliliter
Compound: CCC(C)n1ncn(-c2ccc(N3CCN(c4ccc(OCC5COC(Cn6cncn6)(c6ccc(Cl)cc6Cl)O5)cc4)CC3)cc2)c1=O (stereo not drawn) [Itraconazole, cis-4{4-(4-(4((2-(2,4-dichlorophenyl)-2-(1H-1,2,4-triazol-1-ylmethyl)-1,3-dioxolan-4yl)nnethoxy)phenyl)-1-piperazinyl)phenyl)-2,4-dihydro-2(1-nnethylpropyl)-3H-1,2,4-triazol-3-one]
